# Experimental data: PubChem BioAssay AID504444 (National Center for Advancing Translational Sciences (NCATS), 2011)
# Among all 360,000 compounds or so, about 7,500 (2.1%) were called active. The shares of active, inactive and inconclusive entries below differ from those in the screen. The call rests on the fitted dose curve; in most records, active means well fitted inhibition curve with a large enough effect; inconclusive means small, poorly fitted or top-dose-only effect, or effect the other way; inactive means flat fitted curve, though single readings scatter. A potency beside an inconclusive call is a rough fit, not a confirmed value.
# Assay: Nrf2 qHTS screen for inhibitors; further: nearly all actives have a fitted effect of over 60% in size
# Conditions: A549 ARE-Fluc reporter, luciferase luminescence, 18-24 h; activity change, negative = inhibition: at 46 µM (top of the series)
# Outline: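 Quantitative HTS in A549 cells stably bearing an antioxidant response element-firefly luciferase construct. Inhibition of Nrf2-driven transcription was scored by luminescence after 18-24 h of compound exposure at 37 °C.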
# On the % scale 0 is the no-effect control and ±100 the full control effect; potency means the concentration at half of the fitted maximal effect.
Compound,Potency,"activity change, negative = inhibition"
O=C(CSc1nc(-c2cccc(F)c2)[nH]c1-c1ccccc1)Nc1ccc2c(c1)OCCO2,"inconclusive: 20.6 µM [falling, single point]",
COc1ccc(SCCN2CCN(CC(C)C)CCC2=O)cc1,"inconclusive: 16.4 µM [activator, partial curve, poor fit]",
CC1Cc2ccccc2N1C(=O)CSc1nnc(-c2ccccc2)c(-c2ccccc2)n1 (stereo not drawn),active: 23.1 µM,
Cc1ccc2nc(NC(=O)c3cccc(-c4cc5ccccc5oc4=O)c3)sc2c1,"inconclusive: 25.9 µM [falling, single point]",
S=C1SCN(Cc2cccnc2)CN1Cc1cccnc1,"inconclusive: 18.4 µM [falling, single point]",
CC(C)(C)OC(=O)NCCCC[C@H](NC(=O)c1[nH]cnc1C(=O)N[C@@H](Cc1ccccc1)C(=O)OC(C)(C)C)C(=O)OC(C)(C)C,"inconclusive: 18.4 µM [falling, single point]",
Cc1ccc(NS(=O)(=O)c2ccc(NC(=O)c3cccc(NC(=O)C(C)C)c3)cc2)cc1,"inconclusive: 29.1 µM [falling, partial curve, poor fit]",
COC(=O)c1cccc(NC(=O)NC(=O)c2ccccc2Cl)c1,"inconclusive: 3.66 µM [activator, partial curve]",
CC(C)CNC(=O)c1cccc(NC(=O)CSc2ccccc2)c1,,inactive: 0.956%
CCOC(=O)C1(CCOC)CCN(Cc2cc3ccccc3s2)CC1,"inconclusive: 23.1 µM [falling, single point]",
O=C(CSCc1ccc(Cl)cc1)N1CCOCC1,"inconclusive: 23.1 µM [activator, single point]",
C#CCN(C)CC/C=C1\c2ccccc2CSc2ccccc21,"inconclusive: 29.1 µM [falling, single point]",
O=S(=O)(c1cccs1)N1CCN(c2ccnc3cc(Cl)ccc23)CC1,"inconclusive: 20.6 µM [falling, single point]",
C=C(C)COc1ccc2c(C)c(C)c(=O)oc2c1OCC(=C)C,"inconclusive: 18.4 µM [falling, partial curve, poor fit]",
Cc1ccc(CNC(=O)C2CCCN(C(=O)Nc3ccc(F)cc3)C2)cc1 (stereo not drawn),,inactive: 9.39%
Cc1cc(-c2ccc(S(=O)(=O)Nc3ccccc3F)s2)on1,"inconclusive: 16.4 µM [falling, partial curve, poor fit]",
O=C(O)Cn1nnc(-c2ccc(OCc3ccccc3Cl)cc2)n1,"inconclusive: 29.1 µM [activator, single point]",
CCOc1ccc(/C=C/C(=O)Nc2cccc(C(C)=O)c2)cc1,"inconclusive: 29.1 µM [falling, single point]",
O=C(ONC(=O)C1C2C=CC(C2)C1C(=O)NOC(=O)c1ccccc1)c1ccccc1 (stereo not drawn),"inconclusive: 13 µM [falling, partial curve]",
CCc1ccc(NC(=O)c2ccccc2NC(=O)C2CCCO2)cc1 (stereo not drawn),"inconclusive: 2.31 µM [activator, partial curve, poor fit]",
O=C(Nc1cccc(S(=O)(=O)N2CCCC2)c1)c1ccccc1OC(F)F,"inconclusive: 25.9 µM [falling, partial curve, poor fit]",

Compound,Potency,"activity change, negative = inhibition"
CC(NC(=O)Cc1ccc(NC(=O)N2CCSc3ncccc32)cc1)c1ccccc1 (stereo not drawn),"inconclusive: 20.6 µM [falling, single point]",
O=C(Cn1nnc(-c2ccccc2-n2cnnn2)n1)N1CCCCC1,"inconclusive: 14.6 µM [activator, partial curve, poor fit]",
CS(=O)(=O)c1ccc(Cl)c(NC(=O)CN2CCCC2c2ccc3c(c2)OCCCO3)c1 (stereo not drawn),"inconclusive: 6.51 µM [falling, partial curve]",
CCOC(=O)c1c(NC(=O)Cn2nc(C(F)(F)F)cc2C)sc(C)c1C,"inconclusive: 2.91 µM [activator, single point]",
CCCOc1ccc(C(=O)Nc2ccc(NC(=O)c3ccccc3)c(Br)c2)cc1,,inactive: 1.87%
COc1ccc(N2CCN(C(=S)Nc3ccc(C)cc3C)CC2)cc1,,inactive: -0.209%
CC(=O)c1cccc(NC(=O)CSc2n[nH]c(-c3ccncc3)n2)c1,,inactive: -7.4%
CC(=O)Nc1ccc(Nc2nc(C)c([N+](=O)[O-])c(Nc3ccccc3)n2)cc1,active: 16.4 µM,
CCN1C(=O)/C(=C/c2nc3ccccc3c(=O)n2-c2ccccc2)c2ccccc21,,inactive: 18.7%
COc1ccccc1NC(=O)CN1C(=O)C2(SCC(=O)N2c2ccc(F)c(F)c2)c2ccccc21 (stereo not drawn),"inconclusive: 25.9 µM [falling, single point]",
COc1cc(NC(=O)CSc2nc(-c3ccco3)cc(C(F)(F)F)n2)cc(OC)c1OC,active: 9.2 µM,
CCOC(=O)C(O)(NC(=O)c1cccnc1)C(F)(F)F (stereo not drawn),"inconclusive: 13 µM [activator, single point]",
O=C(COC(=O)c1ccc(Cl)nc1)Nc1ccc(S(=O)(=O)N2CCCC2)cc1,"inconclusive: 3.26 µM [activator, partial curve, poor fit]",
CSCc1cc(N2CCOCC2)nc(SCc2ccc(Cl)c(Cl)c2)n1,"inconclusive: 16.4 µM [falling, single point]",
C(=N\Nc1ccccn1)/c1c[nH]c2ccccc12,"inconclusive: 20.6 µM [activator, partial curve]",
CC1CCN(S(=O)(=O)c2ccc(C(=O)Nc3nnc(-c4ccncc4)o3)cc2)CC1,"inconclusive: 29.1 µM [falling, single point]",
COCCCNC(=O)C[C@H]1C[C@H](C(=O)N(C(C)C)C(C)C)[C@@]2(C)c3[nH]c4cc(-c5ccco5)ccc4c3CCN2C1=O,"inconclusive: 16.4 µM [falling, single point]",
C/C(=N\NC(=O)C1CCCC1)c1ccc(Cl)cc1,"inconclusive: 16.4 µM [activator, partial curve, poor fit]",
Cc1cc(C)nc(-n2nc(C)c3c2N(C)C(=O)CC3c2ccc(Cl)cc2)n1 (stereo not drawn),,inactive: -1.86%
COc1ccc(OCCSc2ncccn2)cc1,"inconclusive: 2.91 µM [activator, single point]",
COc1ccc(CCNC(=O)Cn2nnc(-c3cccc(OC)c3OC)n2)cc1OC,"inconclusive: 0.103 µM [falling, full curve, poor fit]",

Compound,Potency,"activity change, negative = inhibition"
Cc1ccc(-c2nnn3c2nc(NCC(C)c2ccccc2)c2ccccc23)cc1 (stereo not drawn),"inconclusive: 8.2 µM [activator, partial curve]",
Cc1c(C(=O)N(C)C)sc2nc(-c3ccccn3)[nH]c(=O)c12,"inconclusive: 29.1 µM [activator, single point]",
COC(=O)C1=C(C)NC(=O)NC1c1cc(Cl)ccc1OC (stereo not drawn),"inconclusive: 20.6 µM [falling, single point]",
CCOc1ccc(NC(=O)c2cc3ccccc3cc2OC)cc1,"inconclusive: 6.51 µM [activator, partial curve, poor fit]",
O=C(NCCCO)c1c(O)c2cccc3c2n(c1=O)CCC3,"inconclusive: 29.1 µM [falling, single point]",
COc1ccc(-c2nn(-c3ccccc3)cc2/C=N/Nc2ccc(S(N)(=O)=O)cc2[N+](=O)[O-])cc1OC,"inconclusive: 18.4 µM [falling, partial curve, poor fit]",
CC(=O)Nc1ccc(NC2=C(Cl)C(=O)c3ccccc3C2=O)cc1,"inconclusive: 3.66 µM [activator, partial curve, poor fit]",
COC(=O)NCC(c1ccc2c(c1)OCO2)N1CCN(c2ccc(OC)cc2)CC1 (stereo not drawn),"inconclusive: 29.1 µM [falling, single point]",
O=C(NCc1ccc(CNC(=O)c2ccco2)cc1)c1ccco1,"inconclusive: 32.6 µM [falling, partial curve, poor fit]",
Cc1ccc2c(c1)N(CC(=O)NCCc1ccc(Cl)cc1)C(=O)c1cccnc1O2,"inconclusive: 29.1 µM [activator, single point]",
O=C(COC(=O)c1cccs1)c1ccccc1,"inconclusive: 10.3 µM [activator, partial curve]",
COc1ccc(NC(=O)Nc2cc(C)ccn2)cc1,"inconclusive: 0.731 µM [activator, partial curve, poor fit]",
Cc1ccc(/C=N/NC(=O)c2ccccn2)s1,"inconclusive: 1.3 µM [activator, partial curve, poor fit]",
c1ccc(CNc2nc(-c3cccnc3)nc3ccccc23)cc1,,inactive: -18.7%
CC1(C)CC(=O)C2=C(C1)NC(=O)NC2c1ccc(Cl)cc1 (stereo not drawn),"inconclusive: 16.4 µM [activator, partial curve]",
COc1ccc(CCNc2ccncn2)cc1,"inconclusive: 18.4 µM [falling, single point]",
Cc1ccc(NC(=O)CCn2nnc3ccccc32)cc1,"inconclusive: 8.2 µM [activator, partial curve]",
CCN(C[C@H]1N[C@@](CC)(C(=O)OC)[C@H]2C(=O)N(C)C(=O)[C@@H]12)S(=O)(=O)c1ccc(-c2ccccc2)cc1,"inconclusive: 18.4 µM [falling, partial curve, poor fit]",
O=C(NCCCn1ccnc1)c1ccc(S(=O)(=O)N2CCOCC2)cc1,"inconclusive: 14.6 µM [falling, partial curve, poor fit]",
Cc1ccccc1OC(=O)CSc1nnc(-c2cccs2)o1,"inconclusive: 29.1 µM [activator, single point]",
CCCCN(C(=O)CNC(=O)c1ccco1)C(C(=O)NC1CCCC1)c1ccc(OC)cc1 (stereo not drawn),"inconclusive: 16.4 µM [falling, partial curve, poor fit]",

# Reformatted: 4 of the compounds above
Compound	Potency	activity change, negative = inhibition
COC(=O)NCC(c1ccc2c(c1)OCO2)N1CCN(c2ccc(OC)cc2)CC1 (stereo not drawn)	inconclusive: 29.1 µM [falling, single point]	
O=C(NCc1ccc(CNC(=O)c2ccco2)cc1)c1ccco1	inconclusive: 32.6 µM [falling, partial curve, poor fit]	
Cc1ccc2c(c1)N(CC(=O)NCCc1ccc(Cl)cc1)C(=O)c1cccnc1O2	inconclusive: 29.1 µM [activator, single point]	
O=C(COC(=O)c1cccs1)c1ccccc1	inconclusive: 10.3 µM [activator, partial curve]	
